From the supplement of paper PMC3334620
Over roughly 33,000 sequences, “E-score (-0.5 to 0.5)” has its median near -0.016; the highest 2% begin near 0.3. Some of the results follow.

target: T1, Yer184c (UniProt P39961); assay: PBM E-score (8-mer binding enrichment) (E-score (-0.5 to 0.5)); higher = stronger / more preferred TF binding; conditions: protein concentration: 100 nM; construct: GST-full length
T1 sequence: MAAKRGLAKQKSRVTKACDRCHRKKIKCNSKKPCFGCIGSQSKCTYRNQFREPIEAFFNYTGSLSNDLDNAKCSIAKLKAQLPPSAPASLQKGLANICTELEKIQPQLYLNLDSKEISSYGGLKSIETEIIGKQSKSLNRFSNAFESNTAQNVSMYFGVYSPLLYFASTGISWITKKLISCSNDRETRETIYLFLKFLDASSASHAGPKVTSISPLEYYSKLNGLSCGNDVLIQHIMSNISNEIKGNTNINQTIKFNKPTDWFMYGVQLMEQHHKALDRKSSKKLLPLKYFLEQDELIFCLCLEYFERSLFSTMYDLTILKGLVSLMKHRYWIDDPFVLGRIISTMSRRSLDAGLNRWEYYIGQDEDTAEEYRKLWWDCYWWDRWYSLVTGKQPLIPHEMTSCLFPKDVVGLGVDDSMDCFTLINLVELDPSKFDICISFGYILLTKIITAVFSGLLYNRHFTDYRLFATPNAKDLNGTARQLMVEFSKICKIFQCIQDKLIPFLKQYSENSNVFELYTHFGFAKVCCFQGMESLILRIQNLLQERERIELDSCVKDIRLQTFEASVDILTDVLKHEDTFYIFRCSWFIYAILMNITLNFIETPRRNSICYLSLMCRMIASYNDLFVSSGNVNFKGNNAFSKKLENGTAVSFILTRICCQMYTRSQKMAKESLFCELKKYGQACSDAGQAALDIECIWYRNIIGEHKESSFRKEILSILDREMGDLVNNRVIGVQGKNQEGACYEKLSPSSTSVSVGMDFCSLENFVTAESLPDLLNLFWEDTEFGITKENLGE
Summary of the method: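 Yeast transcription factors carrying a GST tag, as full-length proteins or DNA-binding domains, were produced by PURExpress in vitro transcription/translation. About 100-200 nM protein was applied to universal all-10-mer Agilent arrays, double-stranded by primer extension on fresh or once-stripped slides. Bound protein was detected with fluorescent anti-GST, and scans were normalised with masliner. The Universal PBM Analysis Suite gave each ungapped eight-base word, pooled with its reverse complement, an E-score, a modified Wilcoxon-Mann-Whitney statistic.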

Sequence	PBM E-score
AAGCTACA	0.0204
ATGCTTAA	0.126
CATCACGC	0.0116
GCGTTCAC	0.0628
ATGTTGCC	-0.0147
CAAGCCTG	-0.271
ACTACAGT	-0.065
TCATGTAA	0.027
AAATGCGT	-0.0131
AGCGGCCC	-0.243
GAGTCTGA	-0.186
CATAGACA	0.0515
ATTTGTAC	0.0416
ATTATTAG	0.121
GGTCTCAA	-0.0247
AGCATGCT	-0.0847
CGACACAG	0.021
CCCAACAA	-0.0495
CTAGATCC	-0.127
CCTAAACC	-0.174
GCCTGTGA	-0.282
ACGGTGAA	0.159
GTCGTCAC	-0.0911
AGCACTTA	-0.131
ATTAGGTC	0.149

Sequence	PBM E-score
ACCGCCGG	0.291
GAATTAAA	0.152
GTTGTTCA	-0.0348
TAGTACTA	0.0671
CTACGTTA	0.0318
TTCTCAAA	0.12
CCAGTTTC	-0.0973
CACCCAGG	-0.21
AAGCTAAG	-0.18
CCACGGAG	0.0656
TCCAAGAA	0.0388
ATTTTGGG	-0.00148
CAAACTTA	0.0384
CACATACA	-0.08
AACTACCA	-0.0838
GGTCGTCA	-0.044
AAGCTTAA	0.102
GCTCTGCA	-0.0884
CACCACGG	-0.137
CTAAACCC	-0.0279
GACTATCC	-0.215
ATTAGTAG	0.164
CAGAGACA	-0.258
GCCACGGA	0.148
AACAACTT	0.0481

Reprinted from above (4 entries):
Sequence	PBM E-score
GCCTGTGA	-0.282
ACGGTGAA	0.159
GTCGTCAC	-0.0911
AGCACTTA	-0.131

Continuation:

Sequence	PBM E-score
CTCCCATC	-0.109
ACACCTCT	-0.335
ACAACTTC	0.147
CGGCCTCA	0.189
GAATTAGA	0.124
ACACTTTG	0.0368
GCTGCAAA	0.198
AGCTCGTC	-0.0589
TTATGAAA	0.175
ATTAGACC	-0.112
CCGCAAAA	0.257
CAACGACC	0.065
GTGGGAAA	0.0324
CGGGCCCA	0.0473
AGGACCCC	-0.202
CCGATTCA	0.0391
CCGGGTAC	0.117
CTCACCCA	-0.0925
TGCTACCA	-0.129
CTACACTC	-0.133
ACCTCTTG	-0.158
TAGCACGA	0.0455
AACCCGAA	0.14
AATCGAAG	0.198
CACTCCGG	0.306

Sequence	PBM E-score
CAATCCTG	0.0876
ATGGCTGA	-0.192
CGCCGGAC	0.28
CCGATGCC	0.193
ATTTGCGG	0.183
TAGCGAGA	0.00559
AGCCTAGC	-0.143
AACCCTCT	-0.401
CCGCGTCA	-0.202
AGACCCGA	0.174
GAGGTCCC	-0.0428
AATTATCG	0.305
TGCGCACA	0.0153
TACTAGTA	0.338
ATATTACC	0.0847
GAGTTCGA	0.139
AATCGGGG	-0.168
AATATAGC	0.019
AGAAGAAA	0.194
GCTAGCAA	-0.00942
CGCGGGGC	0.127
ACTAGAGC	-0.186
CAGCCGCC	0.0636
GCTCTCGA	-0.0884
ACATAGGA	-0.241

Sequence	PBM E-score
AGTACGAG	0.00236
AACGGCGT	0.0782
CGACTTAG	0.00134
GCTAACTA	0.156
GCCCCTTA	-0.318
GCCCTAAA	-0.195
ACTCTTCG	-0.0215
ACCAAACG	-0.0596
ACTCCAGT	-0.245
GAGTTTAC	0.164
CTACTGTC	-0.171
ACTAACAT	0.196
CGCGACTC	-0.0899
TATAGAGA	0.0298
CGTGACAC	0.0278
AGCAGATG	-0.28
CCATTTCA	-0.27
AATCGAAA	0.0631
GCAACGAC	-0.056
CTCATGTA	0.11
AAAGCGGG	-0.254
CAAGAGTA	-0.033
CCGACTCA	-0.0343
CGATCGGA	0.142
GAGACCAC	-0.0935

Quoted from the listing.
In PBM E-score, CGCGACTC shows -0.0899
In PBM E-score, ACTCTTCG shows -0.0215
In PBM E-score, ACTCCAGT shows -0.245
In PBM E-score, GAGACCAC shows -0.0935

(continued)

Sequence	PBM E-score
AGTTTGTA	0.0354
CGTATTCA	0.05
ATATCGAC	0.0442
CGATTACG	-0.115
ATACCAGC	-0.133
AGGTTGAT	-0.299
ATTTGAAG	0.00359
GACCTACC	-0.139
AGTCCCAG	-0.169
AAAAAATT	0.136
CCGTTAAC	0.161
GGGCCGCA	0.0547
AGTTGGAC	-0.073
CTCCTTGA	-0.312
CATGTTGG	-0.193
GGCAATCA	0.0964
ACCAAGCT	-0.0189
CACCAGGG	-0.309
ACGAGTAT	-0.195
AAATGAAG	0.0447
AACGCGCA	-0.0307
ACTGCTGA	-0.2
ACAAACCA	-0.0386
ATACCCTG	-0.0448
GCCATCTA	-0.122

Sequence	PBM E-score
CCTGTAGA	-0.094
AGAATAAG	0.0963
AGATCAAA	0.0845
CTAAGCCA	-0.242
CTGAGTAA	-0.144
ACTCCACG	-0.142
ATAATAAC	0.121
AACCTAAC	0.0518
AAGGTGGG	-0.336
TGCCCAAA	-0.0685
CCAGATAA	0.0399
GGCATTTA	-0.0741
ATGTGTAC	0.0767
ATGAGCTG	-0.105
AGCACTAC	-0.208
ACCCTGCG	-0.107
AAGTGCCT	-0.332
ATTAGCTA	-0.0375
CAACCGGC	0.323
ATTCGCCC	-0.127
CAAGCAGA	0.0342
ATAGCGCC	0.0587
